± gives the standard deviation of the averaged measurements. Some of the results follow. Repeats are few or missing, and single values can be far off.
Test system: RAW 264.7 macrophages infected with S. aureus JE2-lux
Experiment: host macrophage viability (CellTiter-Fluor) relative to DMSO vehicle; higher = more viable host cells
Conditions: 10 µM; treatment time 4 h; gentamicin 50 µg/ml

Row | SMILES | host macrophage viability
1 | COc1ccc(C(=O)N(Cc2ccc(Cl)cc2)c2nc3[nH]c(C)c(C)c(=O)n3n2)cc1 | 108%
2 | Cc1ccc(-c2nnc3ccccc3c2C(=O)Nc2cc(C)ccn2)cc1 | 124%
3 | Cc1ccc(Cn2c(=O)c3ccccc3n3c(=S)[nH]nc23)cc1 | 135%
4 | COCCN1C(=O)C2C(c3ccccc3O)NN(Cc3ccccc3)C2C1=O (configuration not stated) | 117%
5 | C=CCN1CC(C(=O)Nc2ccc3c(C)cc(C)nc3n2)CC1=O (configuration not stated) | 103%
6 | Cc1cccn2c(=O)c(/C=C(\C#N)C(N)=O)c(Oc3ccc(Cl)cc3)nc12 | 148%
7 | CCOC(=O)CSc1ccc2nnc(-c3cccs3)n2n1 | 135%
8 | Cc1cc(NC(=O)CCCN2C(=O)c3cccc4cccc(c34)C2=O)n(-c2ccccc2)n1 | 119%
9 | Cc1ccc2oc(=O)c(-c3nc4ccc([N+](=O)[O-])cc4[nH]3)cc2c1 | 114%
10 | COc1ccc2nc(NC(=O)Nc3ccc(C)cc3Cl)sc2c1 | 104%
11 | COc1ccc(C2CC(c3cccc(NS(C)(=O)=O)c3)=NN2S(=O)(=O)c2ccc(C)cc2)cc1 (configuration not stated) | 99.4%
12 | COc1ccc(-c2nc3cc(C)ccn3c2NC(=O)CCc2ccccc2)cc1 | 101%
13 | Cc1oc2ncnc(OCC(=O)NCC3CCCO3)c2c1C (configuration not stated) | 112%
14 | CCOCCCNC(=O)CCn1cnc2c(-c3ccc(C)cc3)noc2c1=O | 76.3%
15 | O=C(CC1Nc2ccccc2NC1=O)Nc1cc(Cl)cc(Cl)c1 (configuration not stated) | 119%
16 | O=C1CC(N2CCN(Cc3ccccc3)CC2)C(=O)N1 (configuration not stated) | 122%
17 | COc1cccc(-c2cc3nc(C)cc(NCc4cccnc4)n3n2)c1 | 93.3%
18 | Cc1ccc(C(C)C)c(OCC(=O)N/N=C2/C(=O)N(C)c3ccccc32)c1 | 95.8%
19 | Cc1nn(C)c(C)c1CNC(=O)c1cc2n(n1)CCCN(Cc1ccc(F)cc1)C2=O | 110%
20 | COCCn1/c(=N/C(=O)c2ccc([N+](=O)[O-])s2)sc2cc(F)ccc21 | 104%
21 | CC(=O)NNc1nc(-c2ccccc2)c2cc(Cl)ccc2n1 | 113%
22 | CCN1C(=O)C(C)(C)COc2ccc(NC(=O)CCc3ccc(OC)cc3)cc21 | 117%
23 | COc1cccc(C(c2sc3nc(C)nn3c2O)N2CCOCC2)c1 (configuration not stated) | 110 ± 7.9%

Row | SMILES | host macrophage viability
24 | COc1ccc(-c2c(C#N)c(SCC(N)=O)nc(C)c2C(=O)Nc2ccccc2)cc1OC | 120%
25 | CCOC(=O)C1=C(c2ccccc2)OC(N)=C(C#N)C1c1ccccc1 (configuration not stated) | 109%
26 | COc1ccccc1C(=O)Nc1ccc(Nc2cc(N(C)C)nc(C)n2)cc1 | 104%
27 | CCc1c(C)nc(SCC(=O)N2CCCCCC2)[nH]c1=O | 102%
28 | COc1ccc(CNC(=O)C2CCCN(c3nccc4c(C)nn(C)c34)C2)c(OC)c1 (configuration not stated) | 112%
29 | CCOC(=O)c1ccc(NC(=O)c2ccc(SCCN3CCOCC3)nc2)cc1 | 83.7%
30 | c1ccc2c(c1)c(NCc1ccncc1)nn1cnnc21 | 107%
31 | Cc1cc2c(c(=O)[nH]1)C(c1ccccc1)C(C#N)=C(N)O2 (configuration not stated) | 115%
32 | Cc1ccc(-c2noc(-c3cnn4c(C)c(Cc5ccccc5C)c(C)nc34)n2)cc1 | 148%
33 | CCOc1ccc(-c2c(C)nn3c(C)c(C(=O)NCc4cccnc4)cnc23)cc1OCC | 112%
34 | CCOc1ccc(-c2noc(CCn3c(=O)[nH]c4ccccc4c3=O)n2)cc1OC | 95.4%
35 | O=C(c1ccc(Cl)cc1)C1CCN(C(=O)Nc2ccc(F)cc2F)CC1 | 113%
36 | O=C(CCOc1ccccc1)Nc1nnc(-c2cc(Cl)ccc2Cl)o1 | 111%
37 | Cc1ccc(NC(=O)CC2SC3=NCCN3C2=O)cc1 (configuration not stated) | 105%
38 | COc1ccccc1N1CCN(c2cc(C)nc3nc(Cc4cccc(F)c4)nn23)CC1 | 122%
39 | Cc1ccc2nc(NCc3ccccc3)c(/C=N/c3cccc(Cl)c3)c(=O)n2c1 | 123%
40 | Cc1c(C(=O)O)sc2ncnc(NCCc3ccsc3)c12 | 125%
41 | CCc1cc(-c2csc(S(=O)(=O)N(Cc3ccccc3)C(C)C)c2)on1 | 85.5%
42 | COC(=O)c1ccc(CSC(=S)NC2CCS(=O)(=O)C2)cc1 (configuration not stated) | 110%
43 | O=C(Nc1cccc(Cl)c1)C1CCN(C(=O)NC2CCCCC2)CC1 | 118%
44 | COc1cc(C)c(CNC(=O)c2c(-c3ccncc3)noc2C)cc1C(C)C | 112%
45 | O=C(Oc1ccc2ccc(=O)oc2c1)c1ccc(Cl)cc1 | 149 ± 4.2%
46 | COc1ccc(OC)c2[nH]c(=O)c(CCNC(=O)/C=C\c3ccccc3)cc12 | 125%

Structures shown so far with a nitro group on carbon, in the order listed:
Row | SMILES | host macrophage viability
9 | Cc1ccc2oc(=O)c(-c3nc4ccc([N+](=O)[O-])cc4[nH]3)cc2c1 | 114%
20 | COCCn1/c(=N/C(=O)c2ccc([N+](=O)[O-])s2)sc2cc(F)ccc21 | 104%

Next part

Row | SMILES | host macrophage viability
47 | C=CCn1c(SCC(=O)N2CCN(CCO)CC2)nc2sc3c(c2c1=O)CCC3 | 118 ± 2.7%
48 | Cc1cccn2c(=O)c(C=O)c(N3CCCC3)nc12 | 126%
49 | O=c1[nH]c2ccc(S(=O)(=O)N3CCc4nc(N5CCCCC5)ncc4C3)cc2o1 | 114%
50 | O=C(Cn1cc(C(=O)c2ccccc2)c(=O)c2cc3c(cc21)OCCO3)Nc1ccc2c(c1)OCO2 | 88.9%
51 | COc1ccc(Cl)c2sc(N(Cc3cccnc3)C(=O)c3c(F)cccc3F)nc12 | 104%
52 | O=C(O)c1ccccc1SC1CC(=O)N(c2ccc([N+](=O)[O-])cc2)C1=O (configuration not stated) | 127%
53 | N=c1oc2c3c4c(cc2cc1C(=O)Nc1cccc(Cl)c1Cl)CCCN4CCC3 | 141%
54 | NC(=O)c1nc(Nc2ccccc2)sc1NC(=O)C1CCCCC1 | 91.7%
55 | O=C(CSc1nc(-c2ccc3c(c2)OCO3)nc2cc(=O)[nH]n12)NCCCc1ccccc1 | 126%
56 | COc1ccc(/C=N/Nc2ncnc3[nH]cnc23)c(OC)c1 | 103%
57 | O=C(O)c1cc(Nc2nc(-c3ccccc3)c3cc(Br)ccc3n2)ccc1O | 113%
58 | Cc1oc(-c2ccno2)cc1S(=O)(=O)NCC1CCCO1 (configuration not stated) | 126%
59 | O=C(CSc1nncc(=O)[nH]1)Nc1cccc(Cl)c1Cl | 110%
60 | CCCn1cnc2cc(-c3noc(CNC(=O)Cc4ccc(Cl)cc4)n3)ccc21 | 110%
61 | CCc1ccc(N2C(=O)CC(Sc3ncccc3C(=O)O)C2=O)cc1 (configuration not stated) | 125%
62 | Cc1occc1-c1nnc2sc(-c3ccc(-c4cccc([N+](=O)[O-])c4)o3)nn12 | 122%
63 | Cc1ccc(CNC(=O)N2CCC(n3cnc4cccnc43)CC2)cc1 | 103%
64 | COc1ccccc1NC(=O)N(CC(=O)Nc1sc(C)c(C)c1C(N)=O)C1CCCC1 | 115%
65 | COc1ccc(C(=O)N2CN(CCCn3ccnc3)Cc3c2sc(C)c3C)cc1 | 124%
66 | CCOC(=O)C1CCN(c2nnc(N3CCCCC3)c3ccccc23)CC1 | 128%
67 | O=C(CSc1ncccc1C(=O)O)Nc1nc2c(s1)CCCC2 | 112%

Reference: the supplement of paper PMC12578635
